Data taken from the supplement of paper PMC6411743.
± gives the standard deviation of the averaged measurements. Only a part is listed here, and it is no random draw.

Legend:
Assay in all cases: NP40-soluble protein abundance relative to vehicle (solubility fold change) (ratio); higher = more soluble protein in presence of AMP-PNP
UQCRFS1 = molecular target: T1, UQCRFS1 (UniProt P47985)
T1 sequence (whole entry): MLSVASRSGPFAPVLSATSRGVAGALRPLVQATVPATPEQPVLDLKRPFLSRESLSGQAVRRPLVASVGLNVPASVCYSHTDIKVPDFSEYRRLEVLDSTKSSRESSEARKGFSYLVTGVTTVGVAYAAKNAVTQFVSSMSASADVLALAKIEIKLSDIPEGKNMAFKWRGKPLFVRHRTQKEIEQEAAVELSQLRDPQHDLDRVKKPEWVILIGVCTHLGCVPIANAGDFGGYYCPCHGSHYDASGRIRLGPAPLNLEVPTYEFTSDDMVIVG
Method in brief: (§1)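 Jurkat crude lysate (Dounce-homogenised) was treated with eight concentrations from 0.1 to 10 mM for 10 min at room temperature, then 3 min at 37 °C. It was solubilised with 0.8% NP40 and benzonase (60 min, 4 °C) and ultracentrifuged, and the supernatant was TMT-labelled for LC-MS/MS. Intensities were vsn-normalised, and the value is the fold change against the NP40-processed vehicle per replicate, from three independent experiments.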

[1] = molecular target: T2, UniProt P49754 and related entries
T2 sequence (whole entry): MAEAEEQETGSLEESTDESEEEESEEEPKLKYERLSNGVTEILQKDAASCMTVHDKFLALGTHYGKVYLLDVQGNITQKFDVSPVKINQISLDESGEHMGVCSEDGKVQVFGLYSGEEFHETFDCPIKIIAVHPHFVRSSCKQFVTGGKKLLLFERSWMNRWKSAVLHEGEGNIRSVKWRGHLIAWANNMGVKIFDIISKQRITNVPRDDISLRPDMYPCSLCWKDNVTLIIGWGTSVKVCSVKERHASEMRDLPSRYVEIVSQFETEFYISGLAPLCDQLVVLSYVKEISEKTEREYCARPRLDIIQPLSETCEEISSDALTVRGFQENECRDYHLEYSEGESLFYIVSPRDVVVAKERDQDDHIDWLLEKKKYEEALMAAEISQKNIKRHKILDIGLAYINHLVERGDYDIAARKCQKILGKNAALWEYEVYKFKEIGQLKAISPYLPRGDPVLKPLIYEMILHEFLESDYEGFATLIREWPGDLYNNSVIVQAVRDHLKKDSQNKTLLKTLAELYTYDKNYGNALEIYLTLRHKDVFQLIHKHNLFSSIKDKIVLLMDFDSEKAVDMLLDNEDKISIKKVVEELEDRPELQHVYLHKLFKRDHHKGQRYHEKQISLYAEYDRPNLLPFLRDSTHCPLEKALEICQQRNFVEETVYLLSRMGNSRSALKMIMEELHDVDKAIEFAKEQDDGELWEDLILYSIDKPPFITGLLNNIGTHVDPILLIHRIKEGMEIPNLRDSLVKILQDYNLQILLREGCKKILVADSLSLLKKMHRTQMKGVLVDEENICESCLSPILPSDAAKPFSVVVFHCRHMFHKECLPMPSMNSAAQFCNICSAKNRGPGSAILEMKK
Method in brief: as §1

[2] = molecular target: T3, UniProt P50395 and related entries
T3 sequence (whole entry): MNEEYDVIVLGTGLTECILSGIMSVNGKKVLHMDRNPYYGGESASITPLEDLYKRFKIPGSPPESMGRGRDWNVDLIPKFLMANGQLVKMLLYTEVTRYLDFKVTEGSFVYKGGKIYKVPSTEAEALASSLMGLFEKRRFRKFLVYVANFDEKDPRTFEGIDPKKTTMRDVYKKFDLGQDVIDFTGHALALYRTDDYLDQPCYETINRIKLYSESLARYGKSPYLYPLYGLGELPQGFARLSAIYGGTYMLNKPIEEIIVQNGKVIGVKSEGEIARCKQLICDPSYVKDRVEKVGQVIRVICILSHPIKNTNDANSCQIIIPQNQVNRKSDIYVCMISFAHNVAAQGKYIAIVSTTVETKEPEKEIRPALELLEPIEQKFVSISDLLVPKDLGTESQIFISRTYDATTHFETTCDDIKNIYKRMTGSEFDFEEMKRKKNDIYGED
Method in brief: as §1

[3] = molecular target: T4, UniProt P51178 and related entries
T4 sequence (whole entry): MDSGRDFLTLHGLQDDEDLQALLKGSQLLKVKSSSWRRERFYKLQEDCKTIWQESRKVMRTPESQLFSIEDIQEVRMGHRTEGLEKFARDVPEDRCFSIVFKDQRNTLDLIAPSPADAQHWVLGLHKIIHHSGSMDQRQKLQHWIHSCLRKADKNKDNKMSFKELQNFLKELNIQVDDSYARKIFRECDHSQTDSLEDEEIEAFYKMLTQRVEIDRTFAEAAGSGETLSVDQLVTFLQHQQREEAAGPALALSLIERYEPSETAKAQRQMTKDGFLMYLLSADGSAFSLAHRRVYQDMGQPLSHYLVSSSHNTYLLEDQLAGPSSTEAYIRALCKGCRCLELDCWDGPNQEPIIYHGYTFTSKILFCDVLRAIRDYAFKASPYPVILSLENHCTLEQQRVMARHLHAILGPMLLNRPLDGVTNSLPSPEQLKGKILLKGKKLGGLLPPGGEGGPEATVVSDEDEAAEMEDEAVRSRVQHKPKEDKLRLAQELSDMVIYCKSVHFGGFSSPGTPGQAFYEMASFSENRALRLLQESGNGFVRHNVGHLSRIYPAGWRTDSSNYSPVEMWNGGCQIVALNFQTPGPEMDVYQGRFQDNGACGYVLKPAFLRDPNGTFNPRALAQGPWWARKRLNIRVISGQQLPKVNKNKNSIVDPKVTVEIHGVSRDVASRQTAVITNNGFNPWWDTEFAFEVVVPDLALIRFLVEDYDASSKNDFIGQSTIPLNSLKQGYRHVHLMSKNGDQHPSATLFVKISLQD
Method in brief: as §1

UniProt P52209-2 = molecular target: T5, UniProt P52209-2
T5 sequence (whole entry): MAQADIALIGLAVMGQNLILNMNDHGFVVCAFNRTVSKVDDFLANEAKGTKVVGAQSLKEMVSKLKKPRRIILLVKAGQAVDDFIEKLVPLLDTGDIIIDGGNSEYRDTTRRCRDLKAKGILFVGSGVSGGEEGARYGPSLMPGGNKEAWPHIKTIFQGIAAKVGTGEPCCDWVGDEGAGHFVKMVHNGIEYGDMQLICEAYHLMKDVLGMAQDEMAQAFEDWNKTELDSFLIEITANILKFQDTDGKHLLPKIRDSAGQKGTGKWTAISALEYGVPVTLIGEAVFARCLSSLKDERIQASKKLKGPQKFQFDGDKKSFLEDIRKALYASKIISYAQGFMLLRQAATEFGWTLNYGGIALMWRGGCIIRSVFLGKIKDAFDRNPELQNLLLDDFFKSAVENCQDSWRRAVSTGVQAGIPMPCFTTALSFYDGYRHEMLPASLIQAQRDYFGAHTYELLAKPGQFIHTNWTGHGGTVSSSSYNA
Method in brief: as §1

[4] = molecular target: T6, UniProt P52594 and related entries
T6 sequence (whole entry): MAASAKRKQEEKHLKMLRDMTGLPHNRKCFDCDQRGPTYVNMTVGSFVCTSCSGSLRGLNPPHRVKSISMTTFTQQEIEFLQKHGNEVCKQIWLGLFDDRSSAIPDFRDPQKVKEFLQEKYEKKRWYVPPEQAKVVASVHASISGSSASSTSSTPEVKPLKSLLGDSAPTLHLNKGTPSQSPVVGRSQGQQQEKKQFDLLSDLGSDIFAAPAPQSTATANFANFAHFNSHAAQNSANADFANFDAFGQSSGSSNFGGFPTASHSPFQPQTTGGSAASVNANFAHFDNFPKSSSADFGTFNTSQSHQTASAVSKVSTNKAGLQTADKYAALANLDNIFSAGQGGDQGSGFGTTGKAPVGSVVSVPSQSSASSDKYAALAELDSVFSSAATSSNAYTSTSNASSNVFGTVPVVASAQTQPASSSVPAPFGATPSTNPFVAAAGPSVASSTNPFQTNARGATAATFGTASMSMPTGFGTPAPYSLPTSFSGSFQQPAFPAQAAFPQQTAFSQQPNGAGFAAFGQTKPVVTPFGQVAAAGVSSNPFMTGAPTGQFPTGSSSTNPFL
Method in brief: as §1

Molecule `Nc1ncnc2c1ncn2[C@@H]1O[C@H](COP(=O)(O)OP(=O)(O)NP(=O)(O)O)[C@@H](O)[C@H]1O` [adenylyl imidodiphosphate] has an NP40-soluble protein abundance (UQCRFS1; concentration: 6mM) of 0.989 ± 0.052, an NP40-soluble protein abundance (UQCRFS1; concentration: 8mM) of 0.985 ± 0.077 and an NP40-soluble protein abundance (UQCRFS1; concentration: 10mM) of 0.968 ± 0.05. The NP40-soluble protein abundance ([1]; concentration: 1mM) was 0.962 ± 0.053, the NP40-soluble protein abundance ([1]; concentration: 2mM) was 0.902 ± 0.046 and the NP40-soluble protein abundance ([1]; concentration: 4mM) was 0.919 ± 0.0064. For the same molecule, the NP40-soluble protein abundance ([1]; concentration: 6mM) was 0.871 ± 0.021, the NP40-soluble protein abundance ([1]; concentration: 8mM) was 0.863 ± 0.034 and the NP40-soluble protein abundance ([1]; concentration: 10mM) was 0.834 ± 0.032. It also gave an NP40-soluble protein abundance ([2]; concentration: 1mM) of 0.986 ± 0.031, an NP40-soluble protein abundance ([2]; concentration: 2mM) of 0.918 ± 0.081 and an NP40-soluble protein abundance ([2]; concentration: 4mM) of 0.9669 ± 0.0071. The NP40-soluble protein abundance ([2]; concentration: 6mM) was 0.951 ± 0.035, the NP40-soluble protein abundance ([2]; concentration: 8mM) was 0.978 ± 0.027 and the NP40-soluble protein abundance ([2]; concentration: 10mM) was 0.934 ± 0.037. For the same molecule, the NP40-soluble protein abundance ([3]; concentration: 1mM) was 0.984 ± 0.025, the NP40-soluble protein abundance ([3]; concentration: 2mM) was 0.944 ± 0.062 and the NP40-soluble protein abundance ([3]; concentration: 4mM) was 0.975 ± 0.034. It also gave an NP40-soluble protein abundance ([3]; concentration: 6mM) of 0.968 ± 0.029, an NP40-soluble protein abundance ([3]; concentration: 8mM) of 0.967 ± 0.018 and an NP40-soluble protein abundance ([3]; concentration: 10mM) of 0.949 ± 0.041. It also gave an NP40-soluble protein abundance (UniProt P52209-2; concentration: 1mM) of 0.985 ± 0.033, an NP40-soluble protein abundance (UniProt P52209-2; concentration: 2mM) of 0.964 ± 0.027 and an NP40-soluble protein abundance (UniProt P52209-2; concentration: 4mM) of 0.961 ± 0.043. It also gave an NP40-soluble protein abundance (UniProt P52209-2; concentration: 6mM) of 1.02 ± 0.067, an NP40-soluble protein abundance (UniProt P52209-2; concentration: 8mM) of 1.01 ± 0.051 and an NP40-soluble protein abundance (UniProt P52209-2; concentration: 10mM) of 1.02 ± 0.035. For the same molecule, the NP40-soluble protein abundance ([4]; concentration: 1mM) was 1.03 ± 0.036, the NP40-soluble protein abundance ([4]; concentration: 2mM) was 1.04 ± 0.081 and the NP40-soluble protein abundance ([4]; concentration: 4mM) was 1.02 ± 0.059. For the same molecule, the NP40-soluble protein abundance ([4]; concentration: 6mM) was 1.05 ± 0.046.
